No constants are given. Whether binding was seen depends on the method and setting. For part of these data: In cells and extracts the contact can be indirect. Some binding calls cover weakened binding; strength is not graded here.

The chains behind the UniProt entries cited, without tags or fusion partners. Where a name states a change or a piece, a line headed by the entry shows the natural chain unless it says otherwise. A line that says so, or that is headed by a name, gives the form on record, which may keep a tag or linker.
mature HuISG15 (purified recombinant) (P05161, form named): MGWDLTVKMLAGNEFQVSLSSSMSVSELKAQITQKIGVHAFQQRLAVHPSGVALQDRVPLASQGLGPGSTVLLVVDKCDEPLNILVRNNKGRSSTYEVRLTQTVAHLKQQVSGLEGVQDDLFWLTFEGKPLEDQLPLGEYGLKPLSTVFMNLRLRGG
UniProt P22314: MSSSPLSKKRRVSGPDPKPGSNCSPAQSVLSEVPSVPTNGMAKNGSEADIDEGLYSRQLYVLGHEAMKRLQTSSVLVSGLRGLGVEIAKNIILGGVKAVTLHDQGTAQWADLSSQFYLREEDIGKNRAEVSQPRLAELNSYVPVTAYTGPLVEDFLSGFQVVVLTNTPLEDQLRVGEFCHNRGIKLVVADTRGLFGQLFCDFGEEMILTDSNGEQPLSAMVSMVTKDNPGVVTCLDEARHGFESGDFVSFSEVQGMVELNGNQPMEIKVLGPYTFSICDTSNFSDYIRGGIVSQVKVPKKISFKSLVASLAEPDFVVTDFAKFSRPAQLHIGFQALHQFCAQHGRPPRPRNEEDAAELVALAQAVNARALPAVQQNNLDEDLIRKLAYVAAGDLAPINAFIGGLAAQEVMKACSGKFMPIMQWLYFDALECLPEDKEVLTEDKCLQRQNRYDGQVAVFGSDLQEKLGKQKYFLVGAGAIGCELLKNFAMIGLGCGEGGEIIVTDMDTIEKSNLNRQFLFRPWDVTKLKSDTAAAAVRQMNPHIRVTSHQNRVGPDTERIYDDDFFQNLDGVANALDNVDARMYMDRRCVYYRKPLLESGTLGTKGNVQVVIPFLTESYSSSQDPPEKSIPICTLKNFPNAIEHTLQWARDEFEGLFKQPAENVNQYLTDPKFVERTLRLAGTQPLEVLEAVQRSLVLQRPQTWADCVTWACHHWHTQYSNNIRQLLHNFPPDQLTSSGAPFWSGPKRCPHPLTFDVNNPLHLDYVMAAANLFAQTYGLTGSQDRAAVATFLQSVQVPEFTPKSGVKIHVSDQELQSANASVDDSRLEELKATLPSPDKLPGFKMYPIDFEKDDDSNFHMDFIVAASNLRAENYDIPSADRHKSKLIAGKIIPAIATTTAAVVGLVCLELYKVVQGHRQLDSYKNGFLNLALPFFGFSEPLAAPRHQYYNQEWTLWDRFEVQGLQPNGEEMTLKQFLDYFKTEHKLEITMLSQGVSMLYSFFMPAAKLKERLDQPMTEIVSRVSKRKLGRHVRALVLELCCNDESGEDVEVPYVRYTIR
UniProt P61088: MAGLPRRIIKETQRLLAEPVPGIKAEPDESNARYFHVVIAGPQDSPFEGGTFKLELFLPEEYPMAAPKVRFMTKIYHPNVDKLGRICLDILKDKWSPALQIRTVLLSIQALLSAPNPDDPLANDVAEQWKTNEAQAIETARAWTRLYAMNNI
UniProt Q9NPD8: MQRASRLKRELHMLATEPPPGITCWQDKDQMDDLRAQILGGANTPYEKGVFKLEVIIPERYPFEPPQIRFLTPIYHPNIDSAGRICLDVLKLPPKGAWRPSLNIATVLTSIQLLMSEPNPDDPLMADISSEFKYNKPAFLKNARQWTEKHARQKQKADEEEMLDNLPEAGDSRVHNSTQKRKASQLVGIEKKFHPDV

Experiment [1] has as its target FLAG-tagged HuISG15 (human) (UniProt P05161). Kind of experiment: co-IP; as the co-immunoprecipitation of Figure 3, but samples obtained in a more concentrated way (Figure S2b); anti-FLAG affinity gel, anti-V5 blot.
In experiment [2] the target is HuUbE1 (purified recombinant) (human) (UniProt P22314). Kind of experiment: in vitro thiolester formation, non-reducing SDS-PAGE; 2.5 µM UbcH8, 200 nM UbE1 or UbE1L, 7.5 µM mature Hu- or AgmISG15; 50 mM HEPES pH 8.0, 100 mM NaCl, 1 mM Mg-ATP, 45 min at 37°C; covalent E1-ISG15 thiolester band on non-reducing SDS-PAGE, disrupted by β-ME; both purified.

“V5-tagged UbcH13 (from UniProt P61088 1-152) (enzyme)”: the binding entry in experiment [1] was “binds weakly”.

Consider “V5-tagged UbcH17 (from UniProt Q9NPD8 1-197) (enzyme)”, for which the binding result in experiment [1] is “binds weakly”.

Take “mature HuISG15 (purified recombinant) (from UniProt P05161 1-157)”: in experiment [2], the binding result was “no binding (tested: 7.5 µM HuISG15, 200 nM UbE1)”.

Values taken from paper PMC2423471.
